Results on one substance are retold here after paper PMC5634784, “Clearance of beta-amyloid is facilitated by apolipoprotein E and circulating high-density lipoproteins in bioengineered human vessels” (eLife, 2017).

The data set deals with bioengineered bipartite vessels. Briefly: Aβ accumulation in bioengineered bipartite vessels (ELISA, 6E10 immunostaining). It is filed as cell-based, human.

“Aβ42: Recombinant Aβ42 peptide (California Peptide Research), soluble monomers”: the “Aβ deposition in tissues engineered from brain- versus cord-derived cells” value (1 μM monomers anteluminal, 24 hr under flow, ELISA, at least four independent tissues) is listed as “the differences were not significant”. In addition, the “Aβ tissue levels after initial deposition” value (bipartite vessels, 1 μM monomeric Aβ anteluminal, ELISA time course) is on record as “remained stable for up to 72 hr”. The “retention of Aβ within the bioengineered vascular wall” value (bipartite vessels, monomers 0, 0.1, 1.0 and 10 μM injected anteluminally, 48 hr under flow, ELISA and 6E10 immunostaining, at least four independent tissues) is recorded as “dose-dependent retention”.
